These results are taken from publication PMC3422239.

By UniProt entry, the sequences of proteins in these tests, tags left out.
UniProt P31946: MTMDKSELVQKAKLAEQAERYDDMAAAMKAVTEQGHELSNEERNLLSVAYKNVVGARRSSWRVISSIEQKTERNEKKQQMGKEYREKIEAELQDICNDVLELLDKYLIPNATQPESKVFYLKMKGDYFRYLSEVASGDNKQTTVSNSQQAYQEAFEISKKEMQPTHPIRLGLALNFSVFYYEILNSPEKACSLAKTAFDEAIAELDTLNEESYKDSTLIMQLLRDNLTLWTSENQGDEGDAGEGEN
UniProt P62258: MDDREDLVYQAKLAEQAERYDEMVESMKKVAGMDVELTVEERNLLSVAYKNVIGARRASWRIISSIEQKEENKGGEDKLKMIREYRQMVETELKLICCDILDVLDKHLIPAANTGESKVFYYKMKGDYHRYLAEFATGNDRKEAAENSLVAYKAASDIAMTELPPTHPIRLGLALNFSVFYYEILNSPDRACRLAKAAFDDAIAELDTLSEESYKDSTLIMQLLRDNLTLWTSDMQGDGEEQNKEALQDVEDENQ

The target in test [1] is GST-14-3-3β (UniProt P31946). Nature of the test: pull-down; 2 µg GST-14-3-3β or ε on glutathione Sepharose 4B incubated 2 hours at 4°C in lysis buffer with lysates of transfected HEK293 cells; blot with GFP and GST antibodies; cells IGF-1 or wortmannin before IGF-1; only the target purified.
The target of test [2] is GST-14-3-3ε (UniProt P62258). The test is described as above.
Test [3] has as its target GST-14-3-3β (UniProt P31946). Nature of the test: pull-down; data not shown: GST pulldown of the single S556A mutant with GST-14-3-3; only the target purified.
For test [4], the target named is GST-14-3-3ε (UniProt P62258). The test is described as above.

Positions count from the first letter of the chain named. In names and notes the source's numbering stands. These are yes or no findings as the source states them, for the method shown. In cells and extracts the contact can be indirect. Some results given as binding are weak or reduced against the parent protein; the word gives no strength. Sequences can lack the tags named with a protein.

B1: GFP-IRS2-S573A (protein, UniProt P81122 1-1321)
chain: MASAPLPGPPASAGGDGPNLNNNNNNNNHSVRKCGYLRKQKHGHKRFFVLRGPGTGGDEASAAGGSPPQPPRLEYYESEKKWRSKAGAPKRVIALDCCLNINKRADAKHKYLIALYTKDEYFAVAAENEQEQEGWYRALTDLVSEGRSGEGGSGTTGGSCSASLPGVLGGSAGAAGCDDNYGLVTPATAVYREVWQVNLKPKGLGQSKNLTGVYRLCLSARTIGFVKLNCEQPSVTLQLMNIRRCGHSDSFFFIEVGRSAVTGPGELWMQADDSVVAQNIHETILEAMKALKELFEFRPRSKSQSSGSSATHPISVPGARRHHHLVNLPPSQTGLVRRSRTDSLAATPPAAKCTSCRVRTASEGDGGAAGGAGTAGGRPMSVAGSPLSPGPVRAPLSRSHTLSAGCGGRPSKVTLAPAGGALQHSRSMSMPVAHSPPAATSPGSLSSSSGHGSGSYPLPPGSHPHLPHPLHHPQGQRPSSGSASASGSPSDPGFMSLDEYGSSPGDLRAFSSHRSNTPESIAETPPARDGSGGELYGYMSMDRPLSHCGRPYRRVSGDGAQDLDRGLRKRTYALTTPARQRQVPQPSSASLDEYTLMRATFSGSSGRLCPSFPASSPKVAYNPYPEDYGDIEIGSHKSSSSNLGADDGYMPMTPGAALRSGGPNSCKSDDYMPMSPTSVSAPKQILQPRLAAALPPSGAAVPAPPSGVGRTFPVNGGGYKASSPAESSPEDSGYMRMWCGSKLSMENPDPKLLPNGDYLNMSPSEAGTAGTPPDFSAALRGGSEGLKGIPGHCYSSLPRSYKAPCSCSGDNDQYVLMSSPVGRILEEERLEPQATPGAGTFGAAGGSHTQPHHSAVPSSMRPSAIGGRPEGFLGQRCRAVRPTRLSLEGLQTLPSMQEYPLPTEPKSPGEYINIDFGEAGTRLSPPAPPLLASAASSSSLLSASSPASSLGSGTPGTSSDSRQRSPLSDYMNLDFSSPKSPKPSTRSGDTVGSMDGLLSPEASSPYPPLPPRPSTSPSSLQQPLPPAPGDLYRLPPASAATSQGPTAGSSMSSEPGDNGDYTEMAFGVAATPPQPIVAPPKPEGARVASPTSGLKRLSLMDQVSGVEAFLQVSQPPDPHRGAKVIRADPQGGRRRHSSETFSSTTTVTPVSPSFAHNSKRHNSASVENVSLRKSSEGSSTLGGGDEPPTSPGQAQPLVAVPPVPQARPWNPGQPGALIGCPGGSSSPMRRETSVGFQNGLNYIAIDVRGEQGSLAQSQPQPGDKNSWSRTRSLGGLLGTVGGSGASGVCGGPGTGALPSASTYASIDFLSHHLKEATVVKE
Turning to B1, the binding result with GST-14-3-3β [1] and with GST-14-3-3ε [2] was “binds” in each case.

B2: GFP-IRS2-S556A (protein, UniProt P81122 1-1321)
chain: B1 chain with S556A, A573S
On to B2, for which the binding result with GST-14-3-3β [3] and in the test with GST-14-3-3ε [4] was “binds” throughout.

B3: GFP-IRS2-S556A/S573A (protein, UniProt P81122 1-1321)
chain: B1 chain with S556A
On to B3, for which the binding entry in the test with GST-14-3-3β [1] and with GST-14-3-3ε [2] was “binds” throughout.
